Results published in patent US12371453B2, “Polypeptide having antibacterial activity, composition for preventing or treating sepsis comprising same, and antibacterial composition” (priority 2019, dated 2025).
At least one peptide structure holds a part that was inferred or is arguable (an end, a ring closure or a residue). Square brackets hold non-standard residues; d marks the D form. Peptide text beside a SMILES is read from it.

System: IL-6
Assay: IL-6 secretion test for bone marrow-derived dendrite cells (BMDCs) with LPS
Type: cell-based
Settings: LPS 30 minutes after peptide treatment

How did the “secretion of IL-6 increased due to LPS” value turn out when `CC(C)C[C@@H](NC(=O)[C@H](N)CCCCN)C(=O)N[C@H](CCCNC(=N)N)C(=O)N[C@@H](C(=O)N[C@H](CCCCN)C(=O)N[C@H](CC(C)C)C(=O)N[C@H](CCCNC(=N)N)C(=O)N[C@H](CCCNC(=N)N)C(=O)N[C@H](Cc1ccc(O)cc1)C(=O)N[C@H](CC(C)C)C(=O)N[C@H](CCCNC(=N)N)C(N)=O)C(C)C` [allD FP13-NH2 (AcOH)] (H-[dK][dL][dR][dV][dK][dL][dR][dR][dY][dL][dR]-NH2; N-terminus assumed) was run?
Its value is “significantly reduces”.
